PubChem BioAssay AID1224830 – NIAID, 2016

Purpose: 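Host factors that control LPS-induced TNF expression in human macrophages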 (primary screen)
System: human THP-1 monocytic leukaemia cells, TNF dual-luciferase reporter clone, PMA-differentiated to macrophage-like cells
Knock-down reagent: siRNA pool against human genes, 50 nM
Timing: LPS for 4 h, given about 3 days after siRNA transfection
Treatment: bacterial LPS (TLR4 ligand), 10 ng/ml
Measured: 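Ratio of firefly to renilla light, scaled to the plate median and expressed as a robust z-score per replicate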
Scale: TNF reporter robust z-score: higher = stronger TNF reporter response to LPS
Rule for the call: 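a well is active when its z-score exceeds 2.8 or falls below -1.5; control wells carry no call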
The deposit covers about 18,000 reagents; below is a random part of them. Of all reagents, about 2,900 (16%) were called active. 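Calls are made per well; low scores hint the gene aids the LPS response, high scores that it dampens it.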 Repeated entries: four replicate wells of each siRNA pool.

Target gene | TNF reporter robust z-score | call
RPS4Y2 (ribosomal protein S4 Y-linked 2) | -1.59 | active
RPS4Y2 (ribosomal protein S4 Y-linked 2) | -1.63 | active
RPS4Y2 (ribosomal protein S4 Y-linked 2) | -1.11 | inactive
RPS4Y2 (ribosomal protein S4 Y-linked 2) | -1.08 | inactive
NUP93 (nucleoporin 93) | – | inactive
NUP93 (nucleoporin 93) | 0.14 | inactive
NUP93 (nucleoporin 93) | -0.07 | inactive
NUP93 (nucleoporin 93) | -0.23 | inactive
MAN1B1 (mannosidase alpha class 1B member 1) | 7.07 | active
MAN1B1 (mannosidase alpha class 1B member 1) | 8.94 | active
MAN1B1 (mannosidase alpha class 1B member 1) | 10 | active
MAN1B1 (mannosidase alpha class 1B member 1) | 18 | active
CEP112 (centrosomal protein 112) | 0.35 | inactive
CEP112 (centrosomal protein 112) | 1.15 | inactive
CEP112 (centrosomal protein 112) | -0.33 | inactive
CEP112 (centrosomal protein 112) | -0.14 | inactive
GCAT (glycine C-acetyltransferase) | -1.28 | inactive
GCAT (glycine C-acetyltransferase) | -0.16 | inactive
GCAT (glycine C-acetyltransferase) | -0.76 | inactive
GCAT (glycine C-acetyltransferase) | 0.23 | inactive
BCHE (butyrylcholinesterase) | -0.44 | inactive
BCHE (butyrylcholinesterase) | 0.29 | inactive
BCHE (butyrylcholinesterase) | 0.12 | inactive
BCHE (butyrylcholinesterase) | 0.36 | inactive
HEATR9 (HEAT repeat containing 9) | 0.9 | inactive
HEATR9 (HEAT repeat containing 9) | 1.13 | inactive
HEATR9 (HEAT repeat containing 9) | -0.38 | inactive
HEATR9 (HEAT repeat containing 9) | 0.15 | inactive
NT5C1A (5'-nucleotidase, cytosolic IA) | -0.73 | inactive
NT5C1A (5'-nucleotidase, cytosolic IA) | 0.07 | inactive
NT5C1A (5'-nucleotidase, cytosolic IA) | -1.04 | inactive
NT5C1A (5'-nucleotidase, cytosolic IA) | 0.73 | inactive
LCN1 (lipocalin 1) | 1.57 | inactive
LCN1 (lipocalin 1) | 6.4 | active
LCN1 (lipocalin 1) | 1.27 | inactive
LCN1 (lipocalin 1) | 1.14 | inactive
SRGAP1 (SLIT-ROBO Rho GTPase activating protein 1) | -0.26 | inactive
SRGAP1 (SLIT-ROBO Rho GTPase activating protein 1) | 0.14 | inactive
SRGAP1 (SLIT-ROBO Rho GTPase activating protein 1) | -0.49 | inactive
SRGAP1 (SLIT-ROBO Rho GTPase activating protein 1) | -0.2 | inactive
TGFB3 (transforming growth factor beta 3) | 2.77 | inactive
TGFB3 (transforming growth factor beta 3) | 2.51 | inactive
TGFB3 (transforming growth factor beta 3) | 0.64 | inactive
TGFB3 (transforming growth factor beta 3) | 2.06 | inactive
BMP4 (bone morphogenetic protein 4) | -0.23 | inactive
BMP4 (bone morphogenetic protein 4) | -0.47 | inactive
BMP4 (bone morphogenetic protein 4) | 0.2 | inactive
BMP4 (bone morphogenetic protein 4) | 0.07 | inactive
IL17REL (interleukin 17 receptor E like) | 1.13 | inactive
IL17REL (interleukin 17 receptor E like) | 1.03 | inactive
IL17REL (interleukin 17 receptor E like) | 1.9 | inactive
IL17REL (interleukin 17 receptor E like) | 1.31 | inactive
DSCC1 | 0.48 | inactive
DSCC1 | 0.57 | inactive
DSCC1 | 0.79 | inactive
DSCC1 | -0.62 | inactive
PAX8 (paired box 8) | 1.14 | inactive
PAX8 (paired box 8) | 0.06 | inactive
PAX8 (paired box 8) | -0.44 | inactive
PAX8 (paired box 8) | 0.05 | inactive
CCDC59 (coiled-coil domain containing 59) | -1.73 | active
CCDC59 (coiled-coil domain containing 59) | -1.57 | active
CCDC59 (coiled-coil domain containing 59) | -0.88 | inactive
CCDC59 (coiled-coil domain containing 59) | -0.38 | inactive
CLDN2 (claudin 2) | -0.79 | inactive
CLDN2 (claudin 2) | -0.68 | inactive
CLDN2 (claudin 2) | -0.55 | inactive
CLDN2 (claudin 2) | -0.77 | inactive
CLPP | -0.78 | inactive
CLPP | 0.37 | inactive
CLPP | -1.04 | inactive
CLPP | -0.99 | inactive
HES1 (hes family bHLH transcription factor 1) | 0.56 | inactive
HES1 (hes family bHLH transcription factor 1) | -0.64 | inactive
HES1 (hes family bHLH transcription factor 1) | -0.59 | inactive
HES1 (hes family bHLH transcription factor 1) | 0.47 | inactive
KIR2DL5B | -1.1 | inactive
KIR2DL5B | -0.9 | inactive
KIR2DL5B | -1.43 | inactive
KIR2DL5B | -1.47 | inactive
SNX22 (sorting nexin 22) | -0.02 | inactive
SNX22 (sorting nexin 22) | -0.24 | inactive
SNX22 (sorting nexin 22) | 0.56 | inactive
SNX22 (sorting nexin 22) | 0.24 | inactive
OR4N5 (olfactory receptor family 4 subfamily N member 5) | -1.49 | inactive
OR4N5 (olfactory receptor family 4 subfamily N member 5) | 5.14 | active
OR4N5 (olfactory receptor family 4 subfamily N member 5) | -1.38 | inactive
OR4N5 (olfactory receptor family 4 subfamily N member 5) | -1.42 | inactive
POLR2E (RNA polymerase II, I and III subunit E) | 2.79 | inactive
POLR2E (RNA polymerase II, I and III subunit E) | 3.17 | active
POLR2E (RNA polymerase II, I and III subunit E) | 0.57 | inactive
POLR2E (RNA polymerase II, I and III subunit E) | 3.72 | active
FAM222B (family with sequence similarity 222 member B) | 1.63 | inactive
FAM222B (family with sequence similarity 222 member B) | 2.76 | inactive
FAM222B (family with sequence similarity 222 member B) | 1.92 | inactive
FAM222B (family with sequence similarity 222 member B) | 3.37 | active
COL26A1 (collagen type XXVI alpha 1 chain) | 0.06 | inactive
COL26A1 (collagen type XXVI alpha 1 chain) | 0.33 | inactive
COL26A1 (collagen type XXVI alpha 1 chain) | 0.18 | inactive
COL26A1 (collagen type XXVI alpha 1 chain) | 0.69 | inactive
GREM1 (gremlin 1, DAN family BMP antagonist) | 1.05 | inactive
GREM1 (gremlin 1, DAN family BMP antagonist) | 0.57 | inactive
GREM1 (gremlin 1, DAN family BMP antagonist) | 0.13 | inactive
GREM1 (gremlin 1, DAN family BMP antagonist) | -0.32 | inactive
SMYD1 (SET and MYND domain containing 1) | 0.33 | inactive
SMYD1 (SET and MYND domain containing 1) | -0.01 | inactive
SMYD1 (SET and MYND domain containing 1) | 0.72 | inactive
SMYD1 (SET and MYND domain containing 1) | 2.03 | inactive
IL12B (interleukin 12B) | 0.83 | inactive
IL12B (interleukin 12B) | 0.38 | inactive
IL12B (interleukin 12B) | -0.47 | inactive
IL12B (interleukin 12B) | -0.14 | inactive
